This note sets out measurements from patent US20240309105A1 (Boehringer Ingelheim, published 2024).

Results are given in words; binding and its absence hold for the method and conditions named. Some results given as binding are weak or reduced against the parent protein; the word gives no strength.

One assay has as its target T1, human CD40-Fc protein (human, UniProt P25942 21-193).
T1 construct: also called recombinant CD40 protein; not shown: Fc part
Put plainly: ForteBio Octet, with and without 50% human serum.

Assay [1] deals with T2, cynomolgus monkey CD40 on cells (cynomolgus monkey, UniProt G7PG38 21-278).
T2 construct: whole, on cells; Cell surface CD40 on cynomolgus B cells and platelets; also called Cyno CD40; CD40 on cynomolgus monkey B cells and platelets
The experiment in a line: directly labeled antibody, B cells and platelets in cynomolgus monkey whole blood.

Assay [2] addresses T2, cynomolgus monkey CD40 on cells. The experiment in a line: flow cytometry, FITC-labeled antibody on cynomolgus platelets. (A flow cytometer gives signals particle by particle.)

B1: Antibody A (antibody, human IgG1, kappa, L234A L235A, V domains shown)
VH: EVQLVESGGGLVKPGGSLRLSCAASGFTFSDYGMHWVRQAPGKGLEWVAYISSGNRIIYYADTVKGRFTISRDNAKNSLYLQMNSLRAEDTALYYCARQDGYRYAMDYWAQGTLVTVSS
VL: DIVMTQSPDSLAVSLGERATMSCKSSQSLLNSGNQKNYLTWHQQKPGQPPKLLIYWTSTRESGVPDRFSGSGSGTDFTLTISSLQAEDVAVYYCQNDYTYPLTFGGGTKVEIKR
notes: also called humanized 20E2
B1: in the assay with human CD40-Fc protein, the binding result was “binds”.

B2: Antibody B (antibody, human IgG1, kappa, L234A L235A, V domains shown)
VH: EVQLVESGGGLVKPGGSLRLSCAASGFTFSDYGMHWVRQAPGKGLEWVAYISSGNRIIYYADTVKGRFTISRDNAKNSLYLQMNSLRAEDTAVYYCARQDGYRYAMDYWGQGTLVTVSS
VL: DIVMTQSPDSLAVSLGEKVTINCKSSQSLLNSGNQKNYLTWHQQKPGQPPKLLIYWTSTRESGVPDRFSGSGSGTDFTLTISSLQAEDVAVYYCQNDYTYPLTFGGGTKVEIKR
notes: also called humanized 20E2
As to B2, the binding result (in the assay with human CD40-Fc protein; in assay [1]) was “binds” throughout.

B3: Antibody C (antibody, human IgG1, kappa, L234A L235A, V domains shown)
VH: QVQLVQSGAEVKKPGASVKVSCTASGFNIKDYYVHWVKQAPGQGLEWMGRIDPEDGDSKYAPKFQGKATMTADTSTSTVYMELSSLRSEDTAVYYCTTSYYVGTYGYWGQGTLVTVSS
VL: DIQMTQSPSSLSASVGDRVTITCSASSSVSYMLWFQQKPGKAPKLLIYSTSNLASGVPSRFSGSGSGTDFTLTISSLQPEDFATYYCQQRTFYPYTFGGGTKVEIKR
notes: also called humanized 2H11
With B3, the binding result in the assay with human CD40-Fc protein is “binds”.

B4: 2H11 (antibody, V domains shown)
VH: EVQLQQSGAELVRPGASVKLSCTASGFNIKDYYVHWVKQRPEKGLEWIGRIDPEDGDSKYAPKFQGKATMTADTSSNTAYLHLSSLTSEDTAVYYCTTSYYVGTYGYWGQGTTLTVSS
VL: QIVLTQSPAIMSASPGEKVTITCSASSSVSYMLWFQQKPGTSPKLWIYSTSNLASGVPARFGGSGSGTSYSLTISRMEAEDAATYYCQQRTFYPYTFGGGTKLEIK
notes: Mouse monoclonal antibody; also called murine anti-CD40 mAb 2H11
With B4, the binding result in assay [2] was “binds”.
